# These are yes or no findings as the source states them, for the method shown. Binding seen in cells or lysates may run through a third protein. These calls come from enrichment with a bait or labelling near it, and not all partners need be listed.
# The chains behind the UniProt entries cited, without tags or fusion partners. Residues count along the entry.
# UniProt A2IDD5: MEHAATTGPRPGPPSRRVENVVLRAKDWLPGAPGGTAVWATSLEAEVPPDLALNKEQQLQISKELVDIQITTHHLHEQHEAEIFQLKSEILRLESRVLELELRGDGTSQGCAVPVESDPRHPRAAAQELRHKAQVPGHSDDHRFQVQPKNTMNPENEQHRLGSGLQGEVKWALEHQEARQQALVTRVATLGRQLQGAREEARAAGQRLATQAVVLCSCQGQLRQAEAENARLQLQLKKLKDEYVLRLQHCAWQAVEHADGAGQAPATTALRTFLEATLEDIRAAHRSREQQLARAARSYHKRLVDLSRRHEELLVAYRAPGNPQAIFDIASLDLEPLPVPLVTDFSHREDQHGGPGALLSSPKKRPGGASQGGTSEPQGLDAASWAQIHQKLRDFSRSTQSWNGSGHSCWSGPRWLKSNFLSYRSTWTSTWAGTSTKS
# UniProt P31415, residues 35-396: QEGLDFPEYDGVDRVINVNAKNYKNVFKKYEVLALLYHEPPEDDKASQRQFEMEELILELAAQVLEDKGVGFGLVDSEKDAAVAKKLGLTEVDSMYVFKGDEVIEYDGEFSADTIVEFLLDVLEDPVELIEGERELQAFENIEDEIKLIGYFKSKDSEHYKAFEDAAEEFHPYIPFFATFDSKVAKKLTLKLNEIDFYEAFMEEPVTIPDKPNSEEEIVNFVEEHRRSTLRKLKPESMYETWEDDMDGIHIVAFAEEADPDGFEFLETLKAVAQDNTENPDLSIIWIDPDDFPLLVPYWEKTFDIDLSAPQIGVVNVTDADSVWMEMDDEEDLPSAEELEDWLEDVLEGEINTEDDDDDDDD
# UniProt P35609: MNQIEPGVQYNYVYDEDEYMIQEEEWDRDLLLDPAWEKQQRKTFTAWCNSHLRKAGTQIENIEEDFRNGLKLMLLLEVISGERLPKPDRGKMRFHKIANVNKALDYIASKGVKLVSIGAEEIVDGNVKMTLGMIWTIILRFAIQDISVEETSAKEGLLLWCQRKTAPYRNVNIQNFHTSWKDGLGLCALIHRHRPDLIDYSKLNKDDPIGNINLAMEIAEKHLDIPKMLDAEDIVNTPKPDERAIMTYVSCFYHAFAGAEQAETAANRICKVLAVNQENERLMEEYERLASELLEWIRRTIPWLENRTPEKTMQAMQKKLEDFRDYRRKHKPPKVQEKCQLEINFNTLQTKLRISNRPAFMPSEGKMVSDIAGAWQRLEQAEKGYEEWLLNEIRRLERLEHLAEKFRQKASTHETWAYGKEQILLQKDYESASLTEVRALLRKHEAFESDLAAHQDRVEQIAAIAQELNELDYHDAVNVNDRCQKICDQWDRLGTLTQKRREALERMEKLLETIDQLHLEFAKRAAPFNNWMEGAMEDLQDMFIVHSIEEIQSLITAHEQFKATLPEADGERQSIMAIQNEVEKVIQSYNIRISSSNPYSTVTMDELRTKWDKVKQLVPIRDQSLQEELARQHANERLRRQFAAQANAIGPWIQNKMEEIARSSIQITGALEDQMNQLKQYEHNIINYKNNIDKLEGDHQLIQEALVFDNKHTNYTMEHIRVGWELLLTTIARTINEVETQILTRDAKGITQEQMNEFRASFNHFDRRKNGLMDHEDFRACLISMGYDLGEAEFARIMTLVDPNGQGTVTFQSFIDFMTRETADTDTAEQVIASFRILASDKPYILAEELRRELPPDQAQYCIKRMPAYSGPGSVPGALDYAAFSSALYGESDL
# UniProt O14983: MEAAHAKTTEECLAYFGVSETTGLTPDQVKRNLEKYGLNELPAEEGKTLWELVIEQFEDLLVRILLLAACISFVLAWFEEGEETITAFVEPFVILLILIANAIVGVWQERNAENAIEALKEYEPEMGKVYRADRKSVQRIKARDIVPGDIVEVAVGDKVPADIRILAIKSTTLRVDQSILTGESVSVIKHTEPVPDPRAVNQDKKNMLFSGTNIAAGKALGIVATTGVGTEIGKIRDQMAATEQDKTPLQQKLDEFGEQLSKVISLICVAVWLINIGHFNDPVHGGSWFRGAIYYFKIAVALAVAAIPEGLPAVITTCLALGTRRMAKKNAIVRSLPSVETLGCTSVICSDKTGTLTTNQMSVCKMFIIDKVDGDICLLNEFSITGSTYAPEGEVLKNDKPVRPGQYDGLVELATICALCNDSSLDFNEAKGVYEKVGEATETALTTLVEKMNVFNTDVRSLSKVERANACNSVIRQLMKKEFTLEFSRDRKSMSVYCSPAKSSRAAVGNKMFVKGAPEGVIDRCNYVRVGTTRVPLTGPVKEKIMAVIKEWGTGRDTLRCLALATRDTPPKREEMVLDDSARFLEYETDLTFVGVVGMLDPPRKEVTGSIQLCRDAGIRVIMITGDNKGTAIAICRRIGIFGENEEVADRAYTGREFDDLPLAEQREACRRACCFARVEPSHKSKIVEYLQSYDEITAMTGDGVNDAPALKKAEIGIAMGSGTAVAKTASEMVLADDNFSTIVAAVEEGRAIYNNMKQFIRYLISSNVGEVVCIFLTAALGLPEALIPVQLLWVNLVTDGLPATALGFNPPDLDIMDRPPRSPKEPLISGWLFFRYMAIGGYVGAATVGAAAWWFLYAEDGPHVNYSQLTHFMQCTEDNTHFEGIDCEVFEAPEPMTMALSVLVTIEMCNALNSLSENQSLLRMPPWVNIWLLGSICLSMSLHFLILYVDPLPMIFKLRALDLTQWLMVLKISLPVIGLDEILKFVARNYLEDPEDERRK
# UniProt P12882: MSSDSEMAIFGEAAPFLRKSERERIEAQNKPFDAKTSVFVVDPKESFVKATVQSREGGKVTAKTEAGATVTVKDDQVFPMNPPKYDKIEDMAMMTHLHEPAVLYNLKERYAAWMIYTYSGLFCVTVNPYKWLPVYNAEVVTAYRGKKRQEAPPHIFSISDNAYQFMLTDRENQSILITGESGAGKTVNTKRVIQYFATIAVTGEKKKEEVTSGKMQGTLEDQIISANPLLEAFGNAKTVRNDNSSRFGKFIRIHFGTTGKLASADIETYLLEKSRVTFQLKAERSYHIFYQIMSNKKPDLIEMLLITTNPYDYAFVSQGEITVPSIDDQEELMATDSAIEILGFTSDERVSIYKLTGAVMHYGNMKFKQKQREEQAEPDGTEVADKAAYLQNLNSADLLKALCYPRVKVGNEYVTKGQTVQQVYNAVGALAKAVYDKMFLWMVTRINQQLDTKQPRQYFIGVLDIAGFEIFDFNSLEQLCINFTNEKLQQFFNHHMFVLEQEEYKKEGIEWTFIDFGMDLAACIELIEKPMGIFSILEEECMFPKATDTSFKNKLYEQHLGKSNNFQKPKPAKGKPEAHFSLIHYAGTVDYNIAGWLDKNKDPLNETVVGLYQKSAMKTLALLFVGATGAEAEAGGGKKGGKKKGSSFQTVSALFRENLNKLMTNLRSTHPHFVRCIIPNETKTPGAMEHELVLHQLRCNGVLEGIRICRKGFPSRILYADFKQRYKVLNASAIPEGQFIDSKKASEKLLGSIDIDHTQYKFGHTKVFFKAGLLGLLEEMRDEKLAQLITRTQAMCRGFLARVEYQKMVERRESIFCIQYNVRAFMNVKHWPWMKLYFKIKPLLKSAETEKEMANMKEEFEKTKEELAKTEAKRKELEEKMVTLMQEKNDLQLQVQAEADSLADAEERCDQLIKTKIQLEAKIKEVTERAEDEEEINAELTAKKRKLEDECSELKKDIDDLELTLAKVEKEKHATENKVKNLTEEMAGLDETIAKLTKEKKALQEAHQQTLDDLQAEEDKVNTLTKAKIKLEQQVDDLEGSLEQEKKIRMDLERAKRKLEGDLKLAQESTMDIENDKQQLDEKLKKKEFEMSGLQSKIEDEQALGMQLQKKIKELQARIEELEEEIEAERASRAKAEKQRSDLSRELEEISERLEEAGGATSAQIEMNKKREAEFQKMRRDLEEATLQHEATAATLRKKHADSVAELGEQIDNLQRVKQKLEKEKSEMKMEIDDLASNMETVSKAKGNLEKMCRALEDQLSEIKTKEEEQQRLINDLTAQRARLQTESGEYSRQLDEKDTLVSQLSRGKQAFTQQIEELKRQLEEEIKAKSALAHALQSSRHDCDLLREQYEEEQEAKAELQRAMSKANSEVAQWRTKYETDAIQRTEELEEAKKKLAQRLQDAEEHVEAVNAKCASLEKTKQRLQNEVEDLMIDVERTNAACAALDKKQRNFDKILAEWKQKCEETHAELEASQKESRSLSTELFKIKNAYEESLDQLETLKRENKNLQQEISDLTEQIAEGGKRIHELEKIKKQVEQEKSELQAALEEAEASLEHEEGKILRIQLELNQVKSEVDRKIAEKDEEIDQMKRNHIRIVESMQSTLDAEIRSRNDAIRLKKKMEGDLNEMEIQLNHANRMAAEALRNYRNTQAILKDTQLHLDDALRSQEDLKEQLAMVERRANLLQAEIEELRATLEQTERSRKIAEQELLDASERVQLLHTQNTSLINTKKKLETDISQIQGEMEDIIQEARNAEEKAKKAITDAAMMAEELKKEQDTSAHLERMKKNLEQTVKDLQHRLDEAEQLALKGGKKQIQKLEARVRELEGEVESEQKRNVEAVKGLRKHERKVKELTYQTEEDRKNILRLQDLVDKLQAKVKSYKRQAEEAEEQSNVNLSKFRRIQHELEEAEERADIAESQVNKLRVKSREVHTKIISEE
# Biological target: coiled-coil domain-containing protein 78 (CCDC78), wild type, of healthy control muscle (human (endogenous in muscle tissue)) (UniProt A2IDD5)
# Assay: affinity purification with mass spectrometry; muscle lysate of a healthy control precipitated with anti-CCDC78 (AV53233) cross-linked with DSS to magnetic beads; SDS-PAGE, Coomassie blue; seven bands cut out, digested with trypsin, nLC-nESI-HRMS/MS, Mascot search
row,binding,Substance
1,binds,calsequestrin1 (from UniProt P31415 35-396)
2,binds,alpha-actinin-2 (ACTN2) (from UniProt P35609 1-894)
3,binds,sarco-endoplasmic reticulum calcium ATPase1 (from UniProt O14983 1-1001)
4,binds,myosin-1 (MYH1) (from UniProt P12882 1-1939)

# Reference: PMC11394131
